# Measurements published in the supplement of paper PMC10849652.
# Amino acid sequences for entries named in this document (tags omitted). A change or cut given only in a name is not applied to a line headed by its entry.
# UniProt P05198, whole entry, looked up: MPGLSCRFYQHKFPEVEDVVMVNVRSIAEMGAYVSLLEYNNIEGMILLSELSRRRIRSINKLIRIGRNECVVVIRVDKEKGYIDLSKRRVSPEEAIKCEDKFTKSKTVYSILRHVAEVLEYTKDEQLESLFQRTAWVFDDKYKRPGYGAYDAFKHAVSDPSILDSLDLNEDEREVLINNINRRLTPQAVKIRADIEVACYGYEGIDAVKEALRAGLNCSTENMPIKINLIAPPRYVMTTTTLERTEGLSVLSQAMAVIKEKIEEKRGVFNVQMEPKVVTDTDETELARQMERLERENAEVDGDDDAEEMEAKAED
# UniProt P57772: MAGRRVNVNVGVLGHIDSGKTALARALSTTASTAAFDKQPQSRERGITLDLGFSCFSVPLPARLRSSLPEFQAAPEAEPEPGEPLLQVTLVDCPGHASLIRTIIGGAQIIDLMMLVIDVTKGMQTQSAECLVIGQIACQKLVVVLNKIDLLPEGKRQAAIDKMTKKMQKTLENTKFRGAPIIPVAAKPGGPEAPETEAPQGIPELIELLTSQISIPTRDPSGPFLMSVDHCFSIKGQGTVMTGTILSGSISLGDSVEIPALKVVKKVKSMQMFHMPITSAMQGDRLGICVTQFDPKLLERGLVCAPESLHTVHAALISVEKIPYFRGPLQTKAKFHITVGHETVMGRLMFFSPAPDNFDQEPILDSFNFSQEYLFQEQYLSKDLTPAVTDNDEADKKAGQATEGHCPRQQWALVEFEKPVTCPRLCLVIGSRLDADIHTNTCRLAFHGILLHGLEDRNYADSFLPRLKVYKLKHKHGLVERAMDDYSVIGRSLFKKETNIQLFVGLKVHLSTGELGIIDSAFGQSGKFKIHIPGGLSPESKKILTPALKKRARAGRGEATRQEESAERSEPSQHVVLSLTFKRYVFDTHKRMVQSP
# UniProt Q9H4M9: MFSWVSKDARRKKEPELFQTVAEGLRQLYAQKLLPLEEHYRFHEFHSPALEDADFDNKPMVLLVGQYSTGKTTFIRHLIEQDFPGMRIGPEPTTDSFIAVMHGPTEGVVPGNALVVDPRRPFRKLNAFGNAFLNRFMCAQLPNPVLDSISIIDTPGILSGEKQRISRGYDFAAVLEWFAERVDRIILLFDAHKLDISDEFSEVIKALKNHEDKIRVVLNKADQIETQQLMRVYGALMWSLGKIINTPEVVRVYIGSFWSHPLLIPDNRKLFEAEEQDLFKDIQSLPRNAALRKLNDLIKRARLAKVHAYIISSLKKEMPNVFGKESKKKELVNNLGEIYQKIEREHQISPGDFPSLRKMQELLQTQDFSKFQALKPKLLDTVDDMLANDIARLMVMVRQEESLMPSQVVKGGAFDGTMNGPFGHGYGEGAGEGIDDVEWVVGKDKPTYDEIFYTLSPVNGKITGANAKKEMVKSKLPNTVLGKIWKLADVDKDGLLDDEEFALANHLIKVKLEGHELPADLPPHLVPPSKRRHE
# UniProt O15372, whole entry, looked up: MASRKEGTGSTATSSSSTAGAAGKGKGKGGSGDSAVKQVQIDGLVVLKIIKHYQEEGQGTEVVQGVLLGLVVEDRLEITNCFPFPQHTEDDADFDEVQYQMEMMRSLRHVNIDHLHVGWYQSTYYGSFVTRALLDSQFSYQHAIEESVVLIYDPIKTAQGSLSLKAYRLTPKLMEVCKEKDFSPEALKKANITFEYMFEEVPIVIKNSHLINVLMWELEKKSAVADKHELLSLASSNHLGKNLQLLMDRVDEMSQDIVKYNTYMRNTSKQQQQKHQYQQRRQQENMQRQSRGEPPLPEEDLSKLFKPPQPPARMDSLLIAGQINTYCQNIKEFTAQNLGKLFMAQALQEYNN
# UniProt Q9UI10, whole entry, looked up: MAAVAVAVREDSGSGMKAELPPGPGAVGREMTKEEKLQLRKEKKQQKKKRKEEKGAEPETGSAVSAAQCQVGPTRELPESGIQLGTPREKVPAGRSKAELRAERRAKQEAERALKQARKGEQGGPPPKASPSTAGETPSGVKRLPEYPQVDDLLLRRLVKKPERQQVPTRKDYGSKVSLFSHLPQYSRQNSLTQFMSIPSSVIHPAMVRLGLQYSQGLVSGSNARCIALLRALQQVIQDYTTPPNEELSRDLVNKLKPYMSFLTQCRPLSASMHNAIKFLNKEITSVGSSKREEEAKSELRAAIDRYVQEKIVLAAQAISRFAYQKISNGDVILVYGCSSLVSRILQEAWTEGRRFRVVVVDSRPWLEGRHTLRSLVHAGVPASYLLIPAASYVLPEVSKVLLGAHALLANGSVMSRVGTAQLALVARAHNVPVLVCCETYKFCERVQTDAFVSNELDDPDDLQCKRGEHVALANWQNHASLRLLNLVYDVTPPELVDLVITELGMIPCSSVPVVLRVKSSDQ
# UniProt Q53HC9: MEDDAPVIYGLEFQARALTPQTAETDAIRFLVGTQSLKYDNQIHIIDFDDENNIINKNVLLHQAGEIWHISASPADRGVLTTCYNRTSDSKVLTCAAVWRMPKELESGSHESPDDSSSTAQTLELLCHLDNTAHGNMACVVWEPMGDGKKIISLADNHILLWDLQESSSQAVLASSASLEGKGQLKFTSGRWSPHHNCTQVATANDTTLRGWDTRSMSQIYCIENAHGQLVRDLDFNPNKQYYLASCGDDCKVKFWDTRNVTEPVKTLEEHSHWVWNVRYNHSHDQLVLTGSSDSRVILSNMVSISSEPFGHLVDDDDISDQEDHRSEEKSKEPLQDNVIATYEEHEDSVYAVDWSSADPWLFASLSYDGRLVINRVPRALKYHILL
# UniProt Q5NDL2: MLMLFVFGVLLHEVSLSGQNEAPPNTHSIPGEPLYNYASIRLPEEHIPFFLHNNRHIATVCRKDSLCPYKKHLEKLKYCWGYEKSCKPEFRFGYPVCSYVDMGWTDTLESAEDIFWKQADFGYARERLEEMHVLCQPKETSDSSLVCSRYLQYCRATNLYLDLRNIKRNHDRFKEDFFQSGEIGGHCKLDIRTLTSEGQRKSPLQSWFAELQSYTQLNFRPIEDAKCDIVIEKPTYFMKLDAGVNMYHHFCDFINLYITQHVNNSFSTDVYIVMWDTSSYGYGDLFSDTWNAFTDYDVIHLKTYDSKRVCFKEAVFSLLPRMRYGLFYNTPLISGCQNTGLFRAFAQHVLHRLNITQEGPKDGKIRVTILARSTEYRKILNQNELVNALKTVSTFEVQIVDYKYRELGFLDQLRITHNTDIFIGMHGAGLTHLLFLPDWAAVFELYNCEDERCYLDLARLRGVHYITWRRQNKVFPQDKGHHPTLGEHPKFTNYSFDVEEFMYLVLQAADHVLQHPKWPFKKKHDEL
# UniProt Q9BQI3, whole entry, looked up: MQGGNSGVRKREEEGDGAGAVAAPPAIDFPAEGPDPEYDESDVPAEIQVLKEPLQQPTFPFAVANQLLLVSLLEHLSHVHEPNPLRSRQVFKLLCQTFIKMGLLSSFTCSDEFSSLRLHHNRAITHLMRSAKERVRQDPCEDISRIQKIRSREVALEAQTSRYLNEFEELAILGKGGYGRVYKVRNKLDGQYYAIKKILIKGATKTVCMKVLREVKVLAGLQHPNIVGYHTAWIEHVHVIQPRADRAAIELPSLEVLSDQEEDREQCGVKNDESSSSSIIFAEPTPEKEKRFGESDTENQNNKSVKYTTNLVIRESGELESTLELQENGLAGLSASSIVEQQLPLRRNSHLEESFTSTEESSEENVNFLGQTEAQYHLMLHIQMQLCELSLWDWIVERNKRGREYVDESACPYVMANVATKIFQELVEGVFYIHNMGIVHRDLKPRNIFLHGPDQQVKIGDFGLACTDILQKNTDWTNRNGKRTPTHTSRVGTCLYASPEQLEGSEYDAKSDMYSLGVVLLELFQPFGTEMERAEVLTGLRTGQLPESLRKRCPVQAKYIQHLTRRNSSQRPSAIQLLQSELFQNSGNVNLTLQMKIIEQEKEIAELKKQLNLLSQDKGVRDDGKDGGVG
# UniProt Q9UHY7: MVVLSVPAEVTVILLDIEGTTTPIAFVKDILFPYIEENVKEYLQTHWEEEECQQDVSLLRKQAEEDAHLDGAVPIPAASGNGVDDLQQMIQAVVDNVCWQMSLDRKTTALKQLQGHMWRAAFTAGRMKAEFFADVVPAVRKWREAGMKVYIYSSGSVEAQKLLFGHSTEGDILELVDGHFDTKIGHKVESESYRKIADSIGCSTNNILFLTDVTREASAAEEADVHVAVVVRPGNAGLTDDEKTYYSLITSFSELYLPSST
# UniProt Q9NZN4: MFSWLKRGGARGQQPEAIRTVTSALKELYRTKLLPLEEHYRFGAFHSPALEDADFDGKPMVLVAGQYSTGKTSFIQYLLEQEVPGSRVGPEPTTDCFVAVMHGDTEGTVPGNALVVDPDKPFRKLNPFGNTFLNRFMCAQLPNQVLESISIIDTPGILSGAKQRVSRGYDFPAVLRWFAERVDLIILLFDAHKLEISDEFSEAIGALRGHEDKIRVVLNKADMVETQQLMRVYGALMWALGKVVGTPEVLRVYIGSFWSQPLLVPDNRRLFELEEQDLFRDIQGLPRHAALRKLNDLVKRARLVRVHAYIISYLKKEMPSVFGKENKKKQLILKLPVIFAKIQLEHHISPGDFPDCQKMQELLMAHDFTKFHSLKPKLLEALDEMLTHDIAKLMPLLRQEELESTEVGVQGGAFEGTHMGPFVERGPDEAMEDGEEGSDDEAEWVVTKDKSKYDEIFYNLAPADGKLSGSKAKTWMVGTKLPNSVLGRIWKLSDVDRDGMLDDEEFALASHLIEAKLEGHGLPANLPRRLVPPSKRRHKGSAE
# UniProt Q9H5J4: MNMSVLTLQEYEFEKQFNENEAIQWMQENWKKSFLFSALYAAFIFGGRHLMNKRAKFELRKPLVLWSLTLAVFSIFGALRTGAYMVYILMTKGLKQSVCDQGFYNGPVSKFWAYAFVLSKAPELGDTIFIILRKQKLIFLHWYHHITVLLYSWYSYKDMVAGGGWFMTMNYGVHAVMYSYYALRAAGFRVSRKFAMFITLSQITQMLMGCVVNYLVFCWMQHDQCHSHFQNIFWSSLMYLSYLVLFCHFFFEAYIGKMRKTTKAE
# UniProt Q8N9N8: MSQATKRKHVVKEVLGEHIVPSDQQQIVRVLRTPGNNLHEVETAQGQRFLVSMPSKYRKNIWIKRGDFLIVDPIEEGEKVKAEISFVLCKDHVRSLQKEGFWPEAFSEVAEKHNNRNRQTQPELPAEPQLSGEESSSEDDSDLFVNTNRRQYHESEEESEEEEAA
# UniProt O75821, whole entry, looked up: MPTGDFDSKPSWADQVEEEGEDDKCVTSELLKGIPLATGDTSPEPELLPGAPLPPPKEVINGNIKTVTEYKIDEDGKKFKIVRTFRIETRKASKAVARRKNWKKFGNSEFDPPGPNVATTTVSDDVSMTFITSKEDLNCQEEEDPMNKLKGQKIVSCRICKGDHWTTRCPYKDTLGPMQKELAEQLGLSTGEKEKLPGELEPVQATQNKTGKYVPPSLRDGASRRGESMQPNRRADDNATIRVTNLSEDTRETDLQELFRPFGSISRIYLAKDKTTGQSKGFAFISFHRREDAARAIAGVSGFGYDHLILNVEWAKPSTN
# UniProt P09104, whole entry, looked up: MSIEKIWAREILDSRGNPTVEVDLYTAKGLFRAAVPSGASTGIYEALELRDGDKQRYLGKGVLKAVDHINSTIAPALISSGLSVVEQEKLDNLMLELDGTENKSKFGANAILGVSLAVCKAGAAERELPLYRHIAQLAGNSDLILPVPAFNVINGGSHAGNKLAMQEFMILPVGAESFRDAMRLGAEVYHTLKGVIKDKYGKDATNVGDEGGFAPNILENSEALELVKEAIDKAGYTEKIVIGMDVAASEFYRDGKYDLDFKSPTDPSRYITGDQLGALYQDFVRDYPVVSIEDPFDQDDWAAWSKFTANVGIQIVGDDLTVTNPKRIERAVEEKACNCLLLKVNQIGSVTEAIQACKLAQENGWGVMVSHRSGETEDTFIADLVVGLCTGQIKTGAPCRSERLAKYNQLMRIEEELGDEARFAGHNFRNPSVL
# UniProt Q9UBQ5, whole entry, looked up: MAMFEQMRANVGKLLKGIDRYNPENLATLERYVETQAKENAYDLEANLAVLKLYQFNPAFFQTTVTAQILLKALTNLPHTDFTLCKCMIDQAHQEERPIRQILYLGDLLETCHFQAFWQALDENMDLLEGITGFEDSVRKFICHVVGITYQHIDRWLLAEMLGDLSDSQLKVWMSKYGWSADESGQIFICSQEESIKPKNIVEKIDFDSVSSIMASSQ
# Some of the results follow.
# Assays:
# Assay in all cases: log2 fold change, soluble protein after heating vs DMSO (PISA); higher = thermal stabilisation; K562 cells, 10 uM, 30 min; active = over 0.2 and 3.5 SD of the protein, either way, in both replicates (recomputed)
# [1] = compound: C1=CC=C(C=C1)[C@H](COC2=CC3=C(C=C2)NC(=O)N3)NC(=O)C4=CC=CN(C4=O)CC5=CC(=C(C=C5)F)F
# Summary of the method: (§1)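 For each measurement, 10 μM compound was applied for 30 min to K562 cells at 2×10^6 cells/mL. Aliquots were heated for 3 min across 48°C-58°C, pooled, and extracted in PBS with 0.5% NP-40 at 4°C; the supernatant after 21,000xg for 90 min was soluble protein. This was quantified by TMTpro 16plex LC-MS/MS with channel sums equalised, and thermal stability was reported relative to control samples from duplicates, on a log2 fold-change scale.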
# [2] = compound: CC1=C(SC2=C1C(=N[C@H](C3=NN=C(N32)C)CC(=O)N)C4=CC=C(C=C4)Cl)C
# Summary of the method: as §1
# [3] = compound: CC1=C2C(=CC=C1)N=C(N(C2=O)C3=CC=CC=C3C)CN4C=NC5=C(N=CN=C54)N
# Summary of the method: as §1
# [4] = compound: Cc1sc2c(c1C)C(c1ccc(Cl)cc1)=N[C@@H](CC(=O)OC(C)(C)C)c1nnc(C)n1-2
# Summary of the method: as §1
# [5] = compound: c1ccc([C@@H]2C[C@H]2NC2CCNCC2)cc1
# Summary of the method: as §1
Target,log2 fold change [1],log2 fold change [2],log2 fold change [3],log2 fold change [4],log2 fold change [5]
EIF2S1 (UniProt P05198),inactive: -0.003,inactive: -0.021,inactive: -0.025,inactive: 0.051,inactive: 0.011
EEFSEC (UniProt P57772),inactive: 0.016,inactive: 0.007,inactive: 0.082,inactive: 0.185,inactive: -0.028
EHD1 (UniProt Q9H4M9),inactive: 0.006,inactive: 0.062,inactive: 0.05,inactive: -0.05,inactive: -0.013
ELP1 (UniProt O95163),inactive: 0.013,inactive: 0.043,inactive: 0.035,inactive: -0.023,inactive: 0
EIF3H (UniProt O15372),inactive: -0.041,inactive: 0.01,inactive: 0.059,inactive: 0.036,inactive: 0.055
EEF1G isoform 2 (UniProt P26641),inactive: -0.068,inactive: 0.005,inactive: -0.049,inactive: -0.001,inactive: -0.006
EIF4ENIF1 isoform 3 (UniProt Q9NRA8),inactive: -0.077,inactive: 0.018,inactive: -0.041,inactive: 0.029,inactive: -0.064
EIF2B4 isoform 2 (UniProt Q9UI10),inactive: -0.029,inactive: 0.032,inactive: -0.021,inactive: -0.029,inactive: -0.027
EIF4H (UniProt Q15056),inactive: -0.035,inactive: 0.021,inactive: 0.014,inactive: 0,inactive: 0.006
"EED, A0A5F9ZI63",inactive: 0.002,inactive: 0.011,inactive: 0.03,inactive: -0.029,inactive: -0.006
EIPR1 (UniProt Q53HC9),inactive: -0.048,inactive: 0.055,inactive: 0.055,inactive: -0.022,inactive: 0.026
EFCAB14 (UniProt O75071),inactive: 0.045,active: -0.293,inactive: 0.016,inactive: 0.018,inactive: 0.321
EOGT (UniProt Q5NDL2),inactive: 0.013,inactive: -0.074,inactive: 0.056,inactive: -0.032,inactive: 0.077
EIF2AK1 (UniProt Q9BQI3),inactive: 0.025,inactive: -0.036,inactive: -0.051,inactive: 0.025,inactive: 0.018
ENOPH1 (UniProt Q9UHY7),inactive: -0.083,inactive: 0.011,inactive: 0.156,inactive: 0.02,inactive: -0.107
EP300 (UniProt Q09472),inactive: -0.123,inactive: 0.05,inactive: 0.07,inactive: -0.032,inactive: -0.011
EHD2 (UniProt Q9NZN4),inactive: -0.018,inactive: 0.049,inactive: 0.022,inactive: -0.019,inactive: -0.049
ELOVL6 (UniProt Q9H5J4),inactive: -0.005,inactive: 0.024,inactive: 0.054,inactive: -0.134,inactive: -0.028
EIF1AD (UniProt Q8N9N8),inactive: 0.013,inactive: 0.067,inactive: 0.068,inactive: 0.013,inactive: -0.034
EIF3G (UniProt O75821),inactive: -0.032,inactive: -0.012,inactive: 0.008,inactive: 0.025,inactive: 0.019
ENO2 (UniProt P09104),inactive: 0.04,inactive: 0.028,inactive: -0.027,inactive: -0.014,inactive: 0.052
EIF3M (UniProt Q7L2H7),inactive: -0.023,inactive: -0.024,inactive: -0.002,inactive: 0.041,inactive: -0.003
ELOB (UniProt Q15370),inactive: -0.014,inactive: 0.156,inactive: 0.066,inactive: -0.116,inactive: 0.006
EIF3K (UniProt Q9UBQ5),inactive: -0.05,inactive: 0.136,inactive: 0.036,inactive: -0.072,inactive: -0.04

# Looked up above:
# For log2 fold change [3], EIF3H (UniProt O15372) is entered as inactive: 0.059
# For log2 fold change [2], EIF2B4 isoform 2 (UniProt Q9UI10) is entered as inactive: 0.032
